Reference: the supplement of paper PMC6414424
± gives the standard deviation of the averaged measurements. Some of the results follow.

system: APPdp1-6 iPSC-derived neurons; assay: pThr231Tau/total Tau ratio Z-score vs DMSO vehicle wells; higher = more pThr231Tau relative to total Tau; conditions: 5 µM; treatment time 5 days

Compound	pThr231Tau/total Tau ratio Z-score
O=[N+]([O-])O[C@@H]1CO[C@H]2[C@@H]1OC[C@@H]2O [Prestw-1294]	0.482 ± 0.75
N[C@@H](Cc1ccc(N(CCCl)CCCl)cc1)C(=O)O	0.511 ± 1
OC1CCCCC1N1CCC(c2ccccc2)CC1 (configuration not stated) [Prestw-920]	0.349 ± 0.4
CC(C)N(CCC(C(N)=O)(c1ccccc1)c1ccccn1)C(C)C (configuration not stated) [Prestw-266]	0.338 ± 0.034
C[C@H](N)[C@H](O)c1ccc(O)c(O)c1 [Prestw-739]	-0.353 ± 1.8
O=C1CN=C(c2ccccc2Cl)c2cc([N+](=O)[O-])ccc2N1 [CLONAZEPAM, anticonvulsant, sedative]	-0.672 ± 0.44
CCC(=O)O[C@@](Cc1ccccc1)(c1ccccc1)[C@@H](C)CN(C)C [Prestw-1054]	-1.46 ± 1.2
NCCc1cc(O)c(O)cc1O [6-Hydroxydopamine]	-0.00823 ± 0.54
CCCC[N+]1(C)[C@@H]2CC(OC(=O)[C@H](CO)c3ccccc3)C[C@H]1[C@@H]1O[C@@H]12 (some centres not stated) [Prestw-1253]	-0.613 ± 0.39
N#Cc1nn(-c2c(Cl)cc(C(F)(F)F)cc2Cl)c(N)c1[S+]([O-])C(F)(F)F (configuration not stated) [FIPRONIL, GABA Cl channel agonist, antiparasitic]	2 ± 2.1
O=C1C[C@@H]2OCC=C3CN4CC[C@]56c7ccccc7N1[C@H]5[C@H]2[C@H]3C[C@H]46	-4.19 ± 0.92
CC[C@@]1(O)C(=O)OCc2c1cc1n(c2=O)Cc2cc3ccccc3nc2-1 [Prestw-200]	-2.42 ± 0.65
CN(C)[C@@H]1C(=O)C(C(N)=O)=C(O)[C@@]2(O)C(=O)C3=C(O)c4c(O)ccc(Cl)c4[C@@](C)(O)[C@H]3C[C@@H]12 [Prestw-145]	0.971 ± 0.44
CC(CCc1ccccc1)NC(C)C(O)c1ccc(O)cc1 (configuration not stated) [Prestw-1454]	0.517 ± 0.38
CC(=O)OC1CN2CCC1CC2 (configuration not stated) [Prestw-1511]	-0.0894 ± 0.28
C[N+](C)(C)CCCCCCCCCC[N+](C)(C)C [Prestw-968]	-1.02 ± 0.27
c1ccc2nc(N3CCNCC3)ccc2c1 [Prestw-617]	0.63 ± 0.75
CN1C[C@H](C(=O)N[C@]2(C)O[C@@]3(O)[C@@H]4CCCN4C(=O)[C@H](Cc4ccccc4)N3C2=O)C[C@@H]2c3cccc4[nH]cc(c34)C[C@H]21 [Prestw-150]	0.551 ± 1.4
C[N+]1(C)[C@@H]2CC[C@H]1C[C@@H](OC(=O)C(CO)c1ccccc1)C2 (some centres not stated) [Prestw-900]	0.75 ± 0.8
Oc1cccc2cccnc12 [OXYQUINOLINE    Therap cat:  Disinfectant]	-3.64 ± 0.7
CCCN1C[C@H](CSC)C[C@@H]2c3cccc4[nH]cc(c34)C[C@H]21 [Prestw-295]	-0.0121
N.N.[Cl][Pt][Cl]	0.691 ± 0.79
CNc1ccc(C(=O)CC(O)CCC(C)C2OC(=O)CC(O)CC(=O)CC(O)CC(O)CC(O)CC(O)CC3(O)CC(O)C(C(=O)OC)C(CC(O[C@@H]4O[C@H](C)[C@@H](O)[C@H](N)[C@@H]4O)/C=C/C=C/C=C/C=C/C=C/C=C/C=C/C2C)O3)cc1.COC(=O)C1C(O)CC2(O)CC(O)CC(O)CC(O)CC(O)CC(=O)CC(O)CC(=O)OC(C(C)CCC(O)CC(=O)c3ccc(N)cc3)C(C)/C=C/C=C/C=C/C=C/C=C/C=C/C=C/C(O[C@@H]3O[C@H](C)[C@@H](O)[C@H](N)[C@@H]3O)CC1O2 (some centres not stated)	-0.0307 ± 0.26
Cc1ncc(CNC(=O)N(CCCl)N=O)c(N)n1	-0.4 ± 1

Compound	pThr231Tau/total Tau ratio Z-score
C[N+]1(C)CCOC(O)(c2ccc(-c3ccc(C4(O)C[N+](C)(C)CCO4)cc3)cc2)C1 (configuration not stated) [Prestw-393]	-0.0897 ± 1.3
Nc1ccncc1	-0.237 ± 0.012
C[C@]12CCC(=O)C=C1CC[C@@H]1[C@@H]2C(=O)C[C@]2(C)C(=O)CC[C@@H]12 [Prestw-899]	-0.405 ± 0.14
CN1C2CC(OC(=O)C(CO)c3ccccc3)CC1C(O)C2 (configuration not stated)	-0.275 ± 1.2
COc1ccc(C(=O)N2CCCC2=O)cc1 [Prestw-1178]	1.09 ± 1.1
O=C(O)CCCc1ccc(N(CCCl)CCCl)cc1 [Prestw-1079]	0.356 ± 1.6
CC[C@@H](C(N)=O)N1CCCC1=O [Prestw-1427]	1.88 ± 0.92
O=C1C=C2C=C[C@@H]3C[C@@]2(O1)[C@H]1CCCCN31	0.387 ± 0.24
CCN[C@@H](C)Cc1cccc(C(F)(F)F)c1 [Prestw-1392]	-0.41 ± 0.77
CC(C)=CC1C(C(=O)OCc2cccc(Oc3ccccc3)c2)C1(C)C (configuration not stated) [PHENOTHRIN     Therap cat: ectoparasiticide]	0.838 ± 0.73
C[CH2][Hg][S]c1ccccc1C(=O)[O-].[Na+] [Prestw-1194]	-3.28 ± 1.2
CN(C)C(=O)Oc1cc(OC(=O)N(C)C)cc(C(O)CNC(C)(C)C)c1 (configuration not stated) [Prestw-361]	-0.241 ± 1.8
CCn1cc(C(=O)O)c(=O)c2cc3c(cc21)OCO3 [Prestw-193]	-0.185 ± 0.23
CCC1(c2ccc(N)cc2)CCC(=O)NC1=O (configuration not stated) [Prestw-244]	-1.77 ± 0.91
CC[C@@]1([C@@H]2O[C@@H]([C@H]3O[C@@](O)(CO)[C@H](C)C[C@@H]3C)C[C@@H]2C)CC[C@H]([C@]2(C)CC[C@]3(C[C@H](O)[C@@H](C)[C@@H]([C@@H](C)[C@@H](OC)[C@H](C)C(=O)O)O3)O2)O1 [Prestw-748]	-2.9 ± 2.4
CCN(C)C(=O)Oc1cccc([C@H](C)N(C)C)c1 [Prestw-1334]	-0.0666 ± 0.031
C[C@@H]1O[C@@H](O[C@H]2C[C@@H](O)[C@]3(CO)[C@H]4[C@H](O)C[C@]5(C)[C@@H](C6=CC(=O)OC6)CC[C@]5(O)[C@@H]4CC[C@]3(O)C2)[C@H](O)[C@H](O)[C@H]1O	-4.77 ± 1.1
CN1[C@@H]2CC[C@H]1C[C@@H](OC1c3ccccc3CCc3ccccc31)C2 [Prestw-1013]	-1.59
O=[N+]([O-])c1cc([As](=O)(O)O)ccc1O [Prestw-970]	-0.77 ± 0.77
CCC(N)C(O)c1ccc(O)c(O)c1 (configuration not stated)	-1.42 ± 0.071
CC(=O)O[C@H]1C[C@H](O[C@H]2[C@@H](O)C[C@H](O[C@H]3[C@@H](O)C[C@H](O[C@H]4CC[C@@]5(C)[C@H](CC[C@@H]6[C@@H]5C[C@@H](O)[C@]5(C)[C@@H](C7=CC(=O)OC7)CC[C@]65O)C4)O[C@@H]3C)O[C@@H]2C)O[C@H](C)[C@H]1O[C@@H]1O[C@H](CO)[C@@H](O)[C@H](O)[C@H]1O [Prestw-656]	-3.79 ± 0.22
C[C@]12N[C@H](Cc3ccccc31)c1ccccc12 [Prestw-935]	0.0777 ± 0.079
C[C@]12N[C@H](Cc3ccccc31)c1ccccc12 [Prestw-109]	-0.241 ± 0.19

Quoted from the entries so far for reference:
Compound	pThr231Tau/total Tau ratio Z-score
C[C@]12CCC(=O)C=C1CC[C@@H]1[C@@H]2C(=O)C[C@]2(C)C(=O)CC[C@@H]12 [Prestw-899]	-0.405 ± 0.14
CN1C2CC(OC(=O)C(CO)c3ccccc3)CC1C(O)C2 (configuration not stated)	-0.275 ± 1.2
COc1ccc(C(=O)N2CCCC2=O)cc1 [Prestw-1178]	1.09 ± 1.1
O=C(O)CCCc1ccc(N(CCCl)CCCl)cc1 [Prestw-1079]	0.356 ± 1.6
CC[C@@H](C(N)=O)N1CCCC1=O [Prestw-1427]	1.88 ± 0.92
O=C1C=C2C=C[C@@H]3C[C@@]2(O1)[C@H]1CCCCN31	0.387 ± 0.24
CCN[C@@H](C)Cc1cccc(C(F)(F)F)c1 [Prestw-1392]	-0.41 ± 0.77
CC(C)=CC1C(C(=O)OCc2cccc(Oc3ccccc3)c2)C1(C)C (configuration not stated) [PHENOTHRIN     Therap cat: ectoparasiticide]	0.838 ± 0.73
C[CH2][Hg][S]c1ccccc1C(=O)[O-].[Na+] [Prestw-1194]	-3.28 ± 1.2
CN(C)C(=O)Oc1cc(OC(=O)N(C)C)cc(C(O)CNC(C)(C)C)c1 (configuration not stated) [Prestw-361]	-0.241 ± 1.8
CCn1cc(C(=O)O)c(=O)c2cc3c(cc21)OCO3 [Prestw-193]	-0.185 ± 0.23
CCC1(c2ccc(N)cc2)CCC(=O)NC1=O (configuration not stated) [Prestw-244]	-1.77 ± 0.91
CC[C@@]1([C@@H]2O[C@@H]([C@H]3O[C@@](O)(CO)[C@H](C)C[C@@H]3C)C[C@@H]2C)CC[C@H]([C@]2(C)CC[C@]3(C[C@H](O)[C@@H](C)[C@@H]([C@@H](C)[C@@H](OC)[C@H](C)C(=O)O)O3)O2)O1 [Prestw-748]	-2.9 ± 2.4
CCN(C)C(=O)Oc1cccc([C@H](C)N(C)C)c1 [Prestw-1334]	-0.0666 ± 0.031
C[C@@H]1O[C@@H](O[C@H]2C[C@@H](O)[C@]3(CO)[C@H]4[C@H](O)C[C@]5(C)[C@@H](C6=CC(=O)OC6)CC[C@]5(O)[C@@H]4CC[C@]3(O)C2)[C@H](O)[C@H](O)[C@H]1O	-4.77 ± 1.1
CN1[C@@H]2CC[C@H]1C[C@@H](OC1c3ccccc3CCc3ccccc31)C2 [Prestw-1013]	-1.59
O=[N+]([O-])c1cc([As](=O)(O)O)ccc1O [Prestw-970]	-0.77 ± 0.77
CCC(N)C(O)c1ccc(O)c(O)c1 (configuration not stated)	-1.42 ± 0.071
CC(=O)O[C@H]1C[C@H](O[C@H]2[C@@H](O)C[C@H](O[C@H]3[C@@H](O)C[C@H](O[C@H]4CC[C@@]5(C)[C@H](CC[C@@H]6[C@@H]5C[C@@H](O)[C@]5(C)[C@@H](C7=CC(=O)OC7)CC[C@]65O)C4)O[C@@H]3C)O[C@@H]2C)O[C@H](C)[C@H]1O[C@@H]1O[C@H](CO)[C@@H](O)[C@H](O)[C@H]1O [Prestw-656]	-3.79 ± 0.22
C[C@]12N[C@H](Cc3ccccc31)c1ccccc12 [Prestw-935]	0.0777 ± 0.079

Continued:

Compound	pThr231Tau/total Tau ratio Z-score
C=CCC1(C(C)CCC)C(=O)N=C(S)NC1=O (configuration not stated) [THIAMYLAL SODIUM    Therap cat: anesthetic]	-0.109 ± 2.4
CCN(CC)C(C)C(=O)c1ccccc1 (configuration not stated) [Prestw-1471]	-0.739 ± 0.17
Oc1cc(Cl)ccc1Oc1ccc(Cl)cc1Cl [Prestw-1479]	0.666 ± 0.91
CC1(C)C(C=C(Cl)Cl)C1C(=O)OC(C#N)c1cccc(Oc2ccccc2)c1 (configuration not stated) [CYPROMETHIN    Therap cat: insecticide]	0.956 ± 2.7
COc1ccc(Cc2nccc3cc(OC)c(OC)cc23)cc1OC [Prestw-583]	-0.542 ± 0.97
CCC1(CC)C(=O)C=CNC1=O [Prestw-803]	0.402 ± 0.59
CC(C)C[C@@H](NC(=O)CNC(=O)[C@@H](NC=O)C(C)C)C(=O)N[C@@H](C)C(=O)N[C@@H](C(=O)N[C@H](C(=O)N[C@@H](C(=O)N[C@@H](Cc1c[nH]c2ccccc12)C(=O)N[C@H](CC(C)C)C(=O)N[C@@H](Cc1c[nH]c2ccccc12)C(=O)N[C@H](CC(C)C)C(=O)N[C@@H](Cc1c[nH]c2ccccc12)C(=O)N[C@H](CC(C)C)C(=O)N[C@@H](Cc1c[nH]c2ccccc12)C(=O)NCCO)C(C)C)C(C)C)C(C)C [GRAMICIDIN    Therap cat: antibacterial]	-4.91 ± 1.2
COC(=O)C1=CCCN(C)C1 [Acetylcholine receptor agonist]	0.341 ± 0.8
COc1cc2c(cc1OC)[C@@]13CCN4CC5=CCO[C@H]6CC(=O)N2[C@H]1[C@H]6[C@H]5C[C@H]43	1.48 ± 2.7
Fc1ccc(C(OCCN2CCN(CCCc3ccccc3)CC2)c2ccc(F)cc2)cc1 [Prestw-386]	-4.5 ± 1.9
CC(C)(C)NCC(O)c1cc(Cl)c(N)c(Cl)c1 (configuration not stated) [Prestw-345]	-0.731 ± 1.2
O=C(NC(=O)c1c(F)cccc1F)Nc1cc(Cl)c(OC(F)(F)C(F)C(F)(F)F)cc1Cl (configuration not stated)	-0.37 ± 0.38
CCNC1(c2cccs2)CCCCC1=O (configuration not stated) [Prestw-1022]	-0.351 ± 0.62
CC[C@H]1[C@@H]2C[C@H]3[C@@H]4N(C)c5ccccc5[C@]45C[C@@H]([C@@H]2[C@H]5O)N3[C@@H]1O	-0.849 ± 0.46
C[C@@H]1CC[C@H]2[C@@H](C)C(=O)O[C@@H]3O[C@@]4(C)CC[C@@H]1[C@]32OO4 [Prestw-498]	1.23 ± 1.3
CCC1(c2cccc(O)c2)CCCCN(C)C1 (configuration not stated) [Prestw-1004]	1.06 ± 1
CNC(C)C(O)c1ccccc1 (configuration not stated)	1.78 ± 2
CC[C@H]1CN2CCc3cc(OC)c(OC)cc3[C@@H]2C[C@@H]1C[C@H]1NCCc2cc(OC)c(OC)cc21	1.87 ± 2
COc1cc([C@@H]2c3cc4c(cc3[C@H](O)[C@H]3COC(=O)[C@H]23)OCO4)cc(OC)c1OC [Prestw-782]	-3.59 ± 1.3
NCCc1c[nH]c2ccc(O)cc12 [Prestw-481]	0.54 ± 1.2
CCN(C(C)=O)c1cccc(-c2ccnc3c(C#N)cnn23)c1 [Prestw-1369]	0.984 ± 1.3
CCC(COC(=O)c1cc(OC)c(OC)c(OC)c1)(c1ccccc1)N(C)C (configuration not stated)	0.146 ± 1.1
C[N+]12CCC(CC1)C(OC(=O)C(O)(c1ccccc1)c1ccccc1)C2 (configuration not stated) [Prestw-822]	-0.565 ± 0.031
OC[C@@H](O)[C@H]1O[C@@H]2O[C@H](C(Cl)(Cl)Cl)O[C@@H]2[C@H]1O	-0.0246 ± 0.065
